# Source: PubChem BioAssay AID587 (National Center for Advancing Translational Sciences (NCATS), 2007)
# “And” between values parts separate entries of the source, which are not always exact repeats. Identical values can stand only once. The whole screen tested about 59,000 compounds, of which about 35 (0.06%) were called active. This list was built around the results that the source calls inconclusive (neither active nor inactive); the mix of calls is not that of the screen. No stated cut-off is given here; in the data, active means max dye-equivalent concentration above about 10 nM; inconclusive means between about 1.1 nM and that limit; inactive means weaker than that.
# Assay: qHTS Assay for Spectroscopic Profiling in Texas Red Spectral Region
# Settings: Compound fluorescence, Texas Red channel, 547/618 nm; stronger effect = higher value
# Description: NIH Molecular Libraries Screening Centers Network [MLSCN] NIH Chemical Genomics Center [NCGC] […] Occasionally, the artifactual effect may originate from the compound#s own spectral or other biophysical properties which generally tend to track its assay concentration. Pre-screening/profiling the library with respect to the compounds# spectral properties should help one exclude false positives early on. While the most informative fluorescent profiling data set is obtained by performing a full excitation and emission scan of each well by using a monochromator-based plate reader, such an approach is practical only on a very limited scale as scanning each well requires long time. An alternative approach, applied here, is to perform plate reader scans using selected excitation and emission wavelength pairs to generate a multidimensional relational database that correlates compound concentration and the respective relative fluorescence intensity at a given wavelength set. A standard curve of Texas Red (TR) present on each plate as six-point concentration series, was used to compute a normalized fluorescence response, termed dye-equivalent concentration, for each compound at each concentration.
# NCGC Assay Protocol Summary: Buffer: 100 mM Tris buffer, pH 8.0 Dye standard plate: The wells in columns 1 through 4 of a Kalypsys polypropylene 1536-well compound plate were filled with standard solutions of fluorophore corresponding to the spectral region of interest. Solutions of TR were placed in the following wells: U1, V1: 3 mM, U2, V2: 300 uM, U3, V3: 30 uM, U4, V4: zero (DMSO), W1, X1: 3 uM, W2, X2: 900 nM, W3, X3: 300 nM, W4, X4: zero (DMSO). Assay Steps: Six uL of buffer were dispensed to 1536-well Greiner black plates. Compounds and dye standards (23 nL) were transferred via Kalypsys PinTool. The plates were incubated for 15 min at room temperature, and then read on ViewLux (Perkin-Elmer) High-throughput CCD imager using 547 nm and 618 nm excitation and emission filter set. Keywords: NIH Roadmap, MLSCN, MLI, MLSMR, qHTS, NCGC, Texas Red, Fluorescent Profiling.
row,SMILES,max dye-equivalent concentration
1,O=C(CC(c1ccco1)C1CCCCC1=O)c1ccco1 (stereo not drawn),inconclusive: 2e-09 M
2,COc1cc(Cl)c(C)cc1NC(=O)COc1cc(C)nc(C(C)C)n1,inconclusive: 1.4e-09 M
3,C=C[C@@H]1CN2CC[C@@H]1C[C@H]2[C@H](O)c1ccnc2ccc(OC)cc12,inactive
4,Cc1cc(Cl)ccc1Nc1sc(C(=O)c2cc3cc(Cl)ccc3o2)c(N)c1C#N,inactive
5,COc1ccc(-c2nc3cnc(OCc4ccccc4)nc3n(CCC#N)c2=O)cc1,inactive
6,Cn1ncc(N=Cc2c(O)ccc3ccccc23)c1C(=O)N1CCOCC1,inactive
7,CN(C)c1ccc(-c2nnc(-c3ccc(S(=O)(=O)C(F)F)cc3)o2)cc1,inactive
8,CCc1ccc(C2C3=C(CC(C)(C)CC3=O)Nc3c2c(=O)[nH]c2nc(C)nn32)cc1 (stereo not drawn),inconclusive: 1.2e-09 M
9,NC(=O)c1c(NC(=O)Cc2cccs2)sc2c1CCC2,inconclusive: 1.4e-09 M
10,Cc1csc(Sc2nc3c(c(=O)[nH]c(=O)n3C)n2CCCc2ccccc2)n1,inconclusive: 1.9e-09 M
11,Nc1nncn1C(=O)c1cc(Br)ccc1Cl,inconclusive: 1.1e-09 M
12,Cc1nc(N2CCN(Cc3ccccc3)CC2)nc2c1C(=O)CCC2,inconclusive: 1.2e-09 M
13,O=c1oc2c(CN3CCOCC3)c(O)ccc2c2c1CCC2,inactive
14,O=c1c(-c2cccs2)nc2cnc(Oc3cccc(Cl)c3)nc2n1C[C@H]1CCCO1,inactive
15,NC12CC3CC(CC(C3)C1)C2,inconclusive: 1.2e-09 M and inconclusive: 1.1e-09 M
16,O=C(Nc1ccc(F)cc1)N(CCCN1CCOCC1)Cc1cc2cc3c(cc2[nH]c1=O)OCO3,inconclusive: 1.2e-09 M
17,CCC(C)c1ccc(O)c(N)c1 (stereo not drawn),inconclusive: 1.5e-09 M
18,CCOc1ccccc1CNC(=O)C1CCCN(c2nc3ccccc3o2)C1 (stereo not drawn),inconclusive: 1.1e-09 M
19,CCNC(=O)CC1C(=O)N(c2ccccc2)C(=O)N1CCC(C)C (stereo not drawn),inconclusive: 1.2e-09 M
20,CC(=O)Nc1ccc(S(=O)(=O)N2CCSC2c2ccccc2Cl)cc1 (stereo not drawn),inconclusive: 1.1e-09 M
21,O=C(c1cc2ccccc2oc1=O)N(Cc1ccco1)C1CCS(=O)(=O)C1 (stereo not drawn),inconclusive: 1.3e-09 M
22,CC(C)(C)n1ncc2c(=O)n(CC(=O)N3CCc4ccccc43)cnc21,inconclusive: 1.1e-09 M

row,SMILES,max dye-equivalent concentration
1,Cc1ccc(S(=O)(=O)N2CCN(C(=O)CN3CCOCC3)C2c2ccccc2)cc1 (stereo not drawn),inconclusive: 2.2e-09 M
2,CC[C@@H]1CN2CCc3cc(OC)c(OC)cc3[C@H]2C[C@@H]1C[C@H]1NCCc2cc(OC)c(OC)cc21,inconclusive: 1.6e-09 M
3,N#Cc1nc(COc2ccccc2)oc1N1CCCC1,inconclusive: 1.5e-09 M
4,NCCCc1ccc2oc3ccccc3c2c1,inactive
5,Cc1ccccc1NC(=O)N1CCCC(c2nc(-c3ccc(F)cc3)no2)C1 (stereo not drawn),inconclusive: 1.4e-09 M
6,C/C=C/c1ccc(OCCCCn2cncn2)c(OC)c1,inconclusive: 1.9e-09 M
7,COc1ccc(CN2C(=O)[C@@H]3C(c4ccccc4Cl)=NO[C@@H]3C2=O)cc1,inconclusive: 1.6e-09 M
8,NC(=O)CS(=O)(=O)c1nc2ccccc2n1Cc1ccccc1F,inconclusive: 1.2e-09 M
9,Nn1cc(-c2ccccc2)nc1SCC(=O)N1CCN(S(=O)(=O)c2ccccc2)CC1,inconclusive: 1.1e-09 M
10,Cn1c(=O)c2c(nc(N3CCOCC3)n2CC(=O)c2ccccc2)n(C)c1=O,inconclusive: 1.1e-09 M
11,Nc1c(NCCCN2CCOCC2)c2ccccc2oc1=O,inconclusive: 1.5e-09 M
12,CCOc1ccccc1OCc1nn2c(COc3ccccc3)nnc2s1,inconclusive: 1.1e-09 M
13,COCCN(C(=O)CN1CCc2ccccc2C1)c1c(N)n(Cc2ccccc2)c(=O)[nH]c1=O,inconclusive: 2.7e-09 M
14,CC(C)(C)OC(=O)N[C@@H](Cc1ccccc1)c1nnc(SCC(=O)O)o1,inconclusive: 1.4e-09 M
15,O=S(=O)(NC1CCCCCC1)c1cccc2cccnc12,inactive
16,Cc1ccccc1-n1nc(C(=O)O)c(C)c(C#N)c1=O,inconclusive: 1.5e-09 M
17,Cc1cn([C@@H]2C[C@H](N=[N+]=N)[C@H](CO)O2)c(=O)[nH]c1=O,inconclusive: 1.4e-09 M
18,O=S(=O)(NC1CCCC1)c1ccccc1Cl,inconclusive: 1.5e-09 M
19,CCCSc1nc(C)c(CC(=O)OCC)c(=O)[nH]1,inconclusive: 1.5e-09 M
20,CC(O)CNc1nc2c(c(=O)n(C)c(=O)n2C)n1CCc1ccccc1 (stereo not drawn),inconclusive: 1.3e-09 M
21,Cc1cc(-n2c(SCCC#N)nnc2-c2cccnc2)ccc1Cl,inconclusive: 1.1e-09 M
22,COCC(=O)N1CCC[C@@]2(CCN(Cc3ccccc3)C2)C1,inactive

row,SMILES,max dye-equivalent concentration
1,Cn1c(=O)c2[nH]c(NCC3CCCO3)nc2n(-c2ccccc2)c1=O (stereo not drawn),inconclusive: 2e-09 M
2,O=C(CCc1ccc(S(=O)(=O)N2CCOCC2)cc1)NCCc1ccccn1,inconclusive: 1.2e-09 M
3,Cc1ccc(OCC(O)Cn2c(NCCc3ccccc3)nc3c2c(=O)[nH]c(=O)n3C)cc1 (stereo not drawn),inconclusive: 1.4e-09 M
4,COc1cc(OC)c(NC(=O)CCc2nc(-c3cccs3)no2)cc1Cl,inconclusive: 1.4e-09 M
5,Nc1nc(-c2ccc(Br)cc2)cs1,inconclusive: 1.4e-09 M
6,Cc1c(C(=O)O)c(O)cc2c1C(=O)c1c(O)c([C@@H]3O[C@H](CO)[C@@H](O)[C@H](O)[C@@H]3O)c(O)c(O)c1C2=O,inactive
7,Cc1ccc2[nH]c(=O)c(CN(CCO)Cc3nnnn3CCc3ccccc3)cc2c1,inconclusive: 1.1e-09 M
8,COc1cccc2c1[C@@H]1CN(CCCCn3c(=O)[nH]c4c(sc5ncc(-c6ccccc6)nc54)c3=O)C[C@H]1CO2,inactive
9,CSCCC(NC(=O)c1ccccc1)C(=O)NCc1ccco1 (stereo not drawn),inconclusive: 1.3e-09 M
10,N#CC1=C(N)SC(N)=C(C#N)C1c1ccnc2ccccc12,inactive
11,CCN(C(=O)c1cnc(N2CCN(c3ncccn3)CC2)c2ccccc12)c1cccc(Cl)c1,inconclusive: 1.4e-09 M
12,O=C(Nc1ccccc1Cl)c1c(F)c(F)c(F)c(F)c1F,inconclusive: 1.6e-09 M
13,C=CCNC(=O)C(C#N)c1nc2ccccc2nc1N1CCCCCC1 (stereo not drawn),inactive
14,O=C(O)[C@@H]1[C@@H]2C[C@H]3c4[nH]c5ccccc5c4CCN3C[C@@H]2CC[C@@H]1O,inactive
15,c1ccc2c3c([nH]c2c1)[C@@H]1[C@H]2CC[C@H]([C@H]4CCCN[C@H]42)N1CC3,inactive
16,CN(CC(=O)Nc1ccc(F)c(F)c1F)c1cnccn1,inconclusive: 1.7e-09 M
17,CCSc1nnc(-c2ccc(OC)cc2)o1,inconclusive: 1.5e-09 M
18,Cc1csc(NC(=O)c2ccc(C)c(S(=O)(=O)N3CCCCC3)c2)n1,inconclusive: 1.2e-09 M
19,O=C(O)c1ccccc1Nc1ccccc1,inconclusive: 1.8e-09 M
20,Cc1noc(C)c1COc1ccc(C(=O)NCc2ccccn2)cc1,inconclusive: 1.4e-09 M
21,Nc1nc(SCC(=O)C23CC4CC(CC(C4)C2)C3)n[nH]1,inconclusive: 1.4e-09 M
22,CCOC(=O)N1CCN(S(=O)(=O)c2ccc3c(c2)SC(C)C(=O)N3)CC1 (stereo not drawn),inconclusive: 1.2e-09 M

row,SMILES,max dye-equivalent concentration
1,N#Cc1ccccc1-c1ccc2ncnc(N3CCNCC3)c2c1,inconclusive: 2.2e-09 M
2,CN(/N=C\c1ccccc1O)c1ccc2ccccc2n1,inactive
3,Brc1ccc([C@H]2CN3CCSC3=N2)cc1,inconclusive: 1.4e-09 M
4,COc1ccccc1N1CCN(C(=O)c2c(-c3c(Cl)cccc3Cl)noc2C)CC1,inconclusive: 1.4e-09 M
5,CC1(C)NC(=O)N(CCOc2ccc3c(c2)CCC3)C1=O,inactive
6,O=C(NC1CCCCC1)C1CCCN1C(=O)NCc1ccccc1 (stereo not drawn),inconclusive: 2.7e-09 M
7,Cc1nc(NCc2ccccc2)c(C(N)=O)c2c1COC(C)(C)C2,inactive
8,CCCc1cc(=O)[nH]c(SCC(=O)Nc2cc3c(cc2C(C)=O)OCO3)n1,inconclusive: 1.6e-09 M
9,O=C(NCc1cccnc1)C1CC(=O)N(c2ccc(Cl)cc2)C1 (stereo not drawn),inconclusive: 2.5e-09 M
10,CCOC(=O)c1cc(NC(=O)C2CCCO2)cc(C(=O)OCC)c1 (stereo not drawn),inconclusive: 1.4e-09 M
11,O=c1cnc2cnc(Oc3cccc(Cl)c3)nc2n1C1CC1,inactive
12,COC(=O)c1c(C(=O)OC)n(CCCN)c2ccc(C)cc12,inconclusive: 1.4e-09 M
13,CCc1ccccc1N1CCN(S(=O)(=O)c2ccc(F)c(C)c2)CC1,inconclusive: 1.5e-09 M
14,Cc1cc(NC(=O)C2CC=CCC2C(=O)O)no1 (stereo not drawn),inconclusive: 1.2e-09 M
15,Cc1nc(N)c(C#N)c(-c2cccnc2)c1C,inconclusive: 1.1e-09 M
16,O=c1cc(-c2ccccc2)nc2nc(-c3ccco3)[nH]n12,inconclusive: 1.1e-09 M
17,CC(C)(C)OC(=O)N1CCC(C(=O)N2CCC[C@H]2C(=O)O)CC1,inconclusive: 1.3e-09 M
18,CC(C)C(c1nnnn1CCc1ccccc1)N1CCN(C(=O)c2ccco2)CC1 (stereo not drawn),inconclusive: 2.8e-09 M
19,Cc1ccccc1Nc1nc(N)nc(CSc2nnc3sc4ccccc4n23)n1,inconclusive: 1.6e-09 M
20,CCn1c(CSc2nnc3ccccn23)nc2cc(C(=O)O)ccc21,active: 1.1e-07 M
21,O=C(NCc1cccnc1)Nc1ccc(F)cc1F,inconclusive: 2.5e-09 M
22,O=C(NCCCn1ccnc1)c1cc(-c2ccc3c(c2)OCO3)on1,inconclusive: 2e-09 M
